The values below come from patent US20110287953A1, “METHOD FOR DISCOVERING POTENTIAL DRUGS” (priority 2010, published 2011).

pIC50: −log10 of the molar value.

For this assay, the system named is HCC cell lines, Mahlavu, PLC5, HepG2, and Huh7. Nature of the assay: MTT cell viability test in HCC cell lines. The note with it: 72 h, Table 3-1. As for the experimental part:
The HCC cell lines, Mahlavu, PLC5, HepG2, and Huh7, were cultured in Dulbecco's Modified Eagle Medium (DMEM; Seromed, Berlin, Germany) supplemented with 10% heat-inactivated fetal bovine serum, 100 μg/ml streptomycin, 100 μg/ml penicillin, and 2 mM L-glutamine in a humidified atmosphere containing 5% CO2 at 37° C. […] The cells were exposed to different concentrations of the small molecules for 72 hours. Control cells were incubated in the absence of small molecules. Afterwards, the cells were incubated with medium containing MTT for 2 hours. […] For the clonogenic assay, Huh7 cells were seeded out in appropriate dilutions in a 6-well plate and treated with selected small molecules at various concentrations for 15 days. Colonies were fixed with glutaraldehyde (6.0% v/v), stained with crystal violet (0.5% w/v), and counted.
Background: Formazan colour is commonly taken as a measure of viable cells.

On to `O=C(CCCN1CCC2(CC1)C(=O)NCN2c1ccccc1)c1ccc(F)cc1` [spiperone], for which the pIC50 was 5.00 to 5.30.

For orientation: pIC50 means −log10 of the IC50, conventionally taken in molar units.
